Patent publication US6436654 (PHARMACIA AND UPJOHN, dated 2002)

The chains behind the UniProt entries cited, without tags or fusion partners.
UniProt Q16665, whole entry: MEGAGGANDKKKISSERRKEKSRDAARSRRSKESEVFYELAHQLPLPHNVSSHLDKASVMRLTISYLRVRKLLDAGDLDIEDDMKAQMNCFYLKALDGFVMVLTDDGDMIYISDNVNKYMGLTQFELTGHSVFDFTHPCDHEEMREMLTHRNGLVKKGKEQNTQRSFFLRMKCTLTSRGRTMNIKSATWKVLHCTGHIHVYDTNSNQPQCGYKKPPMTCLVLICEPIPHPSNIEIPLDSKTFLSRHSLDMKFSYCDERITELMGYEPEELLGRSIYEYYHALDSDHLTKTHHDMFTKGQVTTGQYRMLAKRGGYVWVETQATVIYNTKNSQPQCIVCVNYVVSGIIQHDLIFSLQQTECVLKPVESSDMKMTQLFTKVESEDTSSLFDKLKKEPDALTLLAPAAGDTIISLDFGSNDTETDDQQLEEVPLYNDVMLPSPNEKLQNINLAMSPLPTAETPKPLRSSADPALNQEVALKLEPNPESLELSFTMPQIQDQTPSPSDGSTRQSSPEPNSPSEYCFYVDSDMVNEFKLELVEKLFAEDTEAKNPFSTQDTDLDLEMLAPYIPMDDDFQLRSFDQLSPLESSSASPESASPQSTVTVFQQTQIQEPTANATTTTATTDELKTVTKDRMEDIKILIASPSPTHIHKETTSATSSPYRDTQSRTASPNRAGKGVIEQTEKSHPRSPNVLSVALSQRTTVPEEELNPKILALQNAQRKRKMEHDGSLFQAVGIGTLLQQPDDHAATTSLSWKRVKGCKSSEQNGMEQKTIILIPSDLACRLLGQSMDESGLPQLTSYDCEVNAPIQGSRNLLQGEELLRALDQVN

How the values were obtained:
Assay in all cases: cell-based or functional assay
[1] = target: GAL4/HIF 531-584 (human, UniProt P04386 1-147 (Saccharomyces cerevisiae entry), [35S]methionine-labeled (in vitro translated) in the pull-down assay)
[2] = target: human HIF-1α (human, UniProt Q16665 1-826)
[3] = target: GAL4/HIF 776-826 (human, UniProt P04386 1-147 (Saccharomyces cerevisiae entry), [35S]methionine-labeled (in vitro translated) in the pull-down assay)

B1: SRC-1 (full-length) (other, human, UniProt Q15788 1-1441, looked up)
chain: MSGLGDSSSDPANPDSHKRKGSPCDTLASSTEKRRREQENKYLEELAELLSANISDIDSLSVKPDKCKILKKTVDQIQLMKRMEQEKSTTDDDVQKSDISSSSQGVIEKESLGPLLLEALDGFFFVVNCEGRIVFVSENVTSYLGYNQEELMNTSVYSILHVGDHAEFVKNLLPKSLVNGVPWPQEATRRNSHTFNCRMLIHPPDEPGTENQEACQRYEVMQCFTVSQPKSIQEDGEDFQSCLICIARRLPRPPAITGVESFMTKQDTTGKIISIDTSSLRAAGRTGWEDLVRKCIYAFFQPQGREPSYARQLFQEVMTRGTASSPSYRFILNDGTMLSAHTKCKLCYPQSPDMQPFIMGIHIIDREHSGLSPQDDTNSGMSIPRVNPSVNPSISPAHGVARSSTLPPSNSNMVSTRINRQQSSDLHSSSHSNSSNSQGSFGCSPGSQIVANVALNQGQASSQSSNPSLNLNNSPMEGTGISLAQFMSPRRQVTSGLATRPRMPNNSFPPNISTLSSPVGMTSSACNNNNRSYSNIPVTSLQGMNEGPNNSVGFSASSPVLRQMSSQNSPSRLNIQPAKAESKDNKEIASILNEMIQSDNSSSDGKPLDSGLLHNNDRLSDGDSKYSQTSHKLVQLLTTTAEQQLRHADIDTSCKDVLSCTGTSNSASANSSGGSCPSSHSSLTERHKILHRLLQEGSPSDITTLSVEPDKKDSASTSVSVTGQVQGNSSIKLELDASKKKESKDHQLLRYLLDKDEKDLRSTPNLSLDDVKVKVEKKEQMDPCNTNPTPMTKPTPEEIKLEAQSQFTADLDQFDQLLPTLEKAAQLPGLCETDRMDGAVTSVTIKSEILPASLQSATARPTSRLNRLPELELEAIDNQFGQPGTGDQIPWTNNTVTAINQSKSEDQCISSQLDELLCPPTTVEGRNDEKALLEQLVSFLSGKDETELAELDRALGIDKLVQGGGLDVLSERFPPQQATPPLIMEERPNLYSQPYSSPSPTANLPSPFQGMVRQKPSLGTMPVQVTPPRGAFSPGMGMQPRQTLNRPPAAPNQLRLQLQQRLQGQQQLIHQNRQAILNQFAATAPVGINMRSGMQQQITPQPPLNAQMLAQRQRELYSQQHRQRQLIQQQRAMLMRQQSFGNNLPPSSGLPVQMGNPRLPQGAPQQFPYPPNYGTNPGTPPASTSPFSQLAANPEASLANRNSMVSRGMTGNIGGQFGTGINPQMQQNVFQYPGAGMVPQGEANFAPSLSPGSSMVPMPIPPPQSSLLQQTPPASGYQSPDMKAWQQGAIGNNNVFSQAVQNQPTPAQPGVYNNMSITVSMAGGNTNVQNMNPMMAQMQMSSLQMPGMNTVCPEQINDPALRHTGLYCNQLSSTDLLKTEADGTQQVQQVQVFADVQCTVNLVGGDPYLNQPGPLGTQKPTSGPQTPQAQQKSLLQQLLTE
modifications: [35S]methionine-labeled (in vitro translated) in the GST precipitation assay
[1]
  GAL4-responsive reporter gene activity in COS7 cells, hypoxia: 1.5 fold
[2]
  HRE-dependent reporter gene activity in COS7 cells, normoxia: ~3 fold
[3]
  GAL4-responsive reporter gene activity in COS7 cells: 17 fold
